# PubChem BioAssay AID1259405 – NCATS | 2018
# Assay: 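Knock-downs that lift recombinant protein yield in hamster ovary cells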 (primary screen)
# Cell system: Chinese hamster CHO-K1 ovary cells with stable secreted eGFP expression
# Reagent: single siRNA against mouse genes, 0.8 pmol siRNA per well (2 µl of 400 nM stock)
# Duration: 3 days
# Read-out: 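Percent of the per-plate non-targeting control median for intracellular GFP per well by laser scanning cytometry and for cell viability by ATP luminescence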
# Reading the numbers: GFP, % of control: higher = more GFP per well, higher productivity; viability (ATP), % of control: higher = more viable cells (more ATP)
# Active means: 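Called active when intracellular GFP, relative to negative control, is at or above 120%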
# This is an unselected part of about 50,000 reagents. In the full data, about 4,000 (8%) got an active call. 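Mouse siRNA library applied to hamster cells; one well for each siRNA.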 Unmarked entries are inactive. The numbers tell different reagents against one gene apart.
The opening 2 records, ahead of the listing:
target,reagent,"GFP, % of control","viability (ATP), % of control"
P3h4 (GeneID 66180),1,98.1,100
P3h4 (GeneID 66180),2,88.1,73.5

The list itself, from the first entry:
target,reagent,"GFP, % of control","viability (ATP), % of control"
P3h4 (GeneID 66180),1,98.1,100
P3h4 (GeneID 66180),2,88.1,73.5
P3h4 (GeneID 66180),3,66.7,54.9
Or1f19 (GeneID 258859),1,48.8,71.9
Or1f19 (GeneID 258859),2,72.3,65.9
Or1f19 (GeneID 258859),3,56.3,94
Arrdc2 (GeneID 70807),1,74.6,74.9
Arrdc2 (GeneID 70807),2,94.4,80.4
Arrdc2 (GeneID 70807),3,251 (active),100
Selp (GeneID 20344),1,75.4,79.4
Selp (GeneID 20344),2,55.5,49
Tmem134 (GeneID 66990),1,63.9,50.5
Tmem134 (GeneID 66990),2,28,41.7
Tmem134 (GeneID 66990),3,138 (active),94.5
Dsg1c (GeneID 211924),1,61.5,47.6
Dsg1c (GeneID 211924),2,68.9,89.4
Dsg1c (GeneID 211924),3,50.8,44.3
Itgb6 (GeneID 16420),1,90.9,73
Itgb6 (GeneID 16420),2,94.4,66.9
Itgb6 (GeneID 16420),3,81.3,87.6
Capn9 (GeneID 73647),1,60.8,76.5
Capn9 (GeneID 73647),2,68.1,79.3
Capn9 (GeneID 73647),3,64.5,66.8
Klk9 (GeneID 101533),1,82.9,67.9
Klk9 (GeneID 101533),2,75.8,76.3
Klk9 (GeneID 101533),3,112,62.9
Magea7-ps (GeneID 17143),1,38.2,31.6
Magea7-ps (GeneID 17143),2,54.3,37.7
Magea7-ps (GeneID 17143),3,98.7,79.5
Crip3 (GeneID 114570),1,85.9,107
Crip3 (GeneID 114570),2,99.7,92
Hcar1 (GeneID 243270),1,132 (active),62.3
Hcar1 (GeneID 243270),2,67,59.1
Hcar1 (GeneID 243270),3,101,61.3
